Measurements reported in PubChem BioAssay AID652243 (Drosophila RNAi Screening Center, 2013).
The screen tested about 24,000 reagents; below is an unselected part of those with a known target gene and a result. Of all reagents, 246 (1%) are marked active. 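Plates not normalised; calls are printed but the firefly/Renilla ratio behind them is not deposited; fold cut for lowering reported inconsistently.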 Raw values are not corrected between plates. Unmarked entries are inactive. Reagents against one gene are numbered here. A plus sign joins genes that one reagent is predicted to hit. Reagent sequences are not shown. The record does not give: the amount of reagent.

- Assay: 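Knock-downs that decrease or increase androgen receptor reporter signal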 (primary screen)
- Cells: Drosophila S2R+ cells
- Reagent: long dsRNA against Drosophila genes
- Time to read-out: 72 h (48 h, then 24 h hormone)
- Conditions: synthetic androgen R1881 at 10 nM for 24 h
- Detection: 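Per-well raw luminescence of the androgen-driven firefly reporter and of the Renilla control, two replicates each, without normalisation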
- Direction: firefly reporter light: higher = more light from androgen-responsive reporter; Renilla control light: higher = more constitutive control signal (cell number, transfection)
- Active means: 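Hit when the log firefly-to-Renilla ratio dropped or increased by a fixed fold versus the mean of GFP or LacZ controls across duplicate plates; lowering cut given as 1.5 and as 3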
- Meaning of the calls: active = hit: reporter lowered or raised; inactive = no hit

target gene	reagent	firefly reporter light, replicate 1	firefly reporter light, replicate 2	Renilla control light, replicate 1	Renilla control light, replicate 2
CG16890	1	1.23e6	1.04e6	1.90e6	1.70e6
CG16890	2	2.43e5	3.80e5	8.20e5	1.08e6
CG3598	1	3.88e5	3.85e5	3.33e6	3.34e6
CG3598	2	2.03e5	3.13e5	4.64e5	4.40e5
Zaf1	1	1.87e5	1.62e5	2.15e6	2.35e6
yrt	1	57264	50524	4.70e5	4.34e5
SCCRO	1	2.02e5	1.66e5	1.45e6	1.31e6
SCCRO	2	1.12e6	7.73e5	1.13e6	9.96e5
Usp7	1	1.80e6	8.80e5	2.98e6	1.07e6
Usp7	2	4.85e5	5.76e5	3.21e6	3.02e6
Usp7	3	2.96e5	3.66e5	6.33e5	4.20e5
Tomosyn	1	38751 (active)	21172	4.03e5	3.97e5
Tomosyn	2	4.40e5	3.09e5	3.74e6	3.18e6
Tomosyn	3	1.13e5	77073	7.50e5	6.88e5
Tomosyn	4	4.47e5	3.22e5	2.67e6	1.85e6
Tomosyn	5	4.34e5	3.26e5	7.83e5	4.59e5
CG45067	1	85645	1.32e5	1.38e6	1.48e6
CG45067	2	2.25e5	1.72e5	6.20e5	5.49e5
gb	1	1.21e5	95723	8.57e5	7.17e5
gb	2	5.96e5	1.13e6	9.02e5	7.49e5
Chc	1	90406	1.09e5	5.93e5	8.15e5
Or83c	1	89441	70908	1.93e6	1.43e6
CG13716	1	4.74e5	5.69e5	2.96e6	2.86e6
CG13716	2	4.49e5	9.20e5	7.87e5	1.44e6
yps	1	1.87e5	2.47e5	6.85e5	4.82e5
CR40441	1	3.97e5	8.61e5	7.41e5	1.43e6
hry	1	6.55e5	8.16e5	1.18e6	1.55e6
hry	2	7.61e5	8.10e5	1.39e6	1.32e6

Next part (5 carried over from the part before).
target gene	reagent	firefly reporter light, replicate 1	firefly reporter light, replicate 2	Renilla control light, replicate 1	Renilla control light, replicate 2
CG13716	2	4.49e5	9.20e5	7.87e5	1.44e6
yps	1	1.87e5	2.47e5	6.85e5	4.82e5
CR40441	1	3.97e5	8.61e5	7.41e5	1.43e6
hry	1	6.55e5	8.16e5	1.18e6	1.55e6
hry	2	7.61e5	8.10e5	1.39e6	1.32e6
chas	1	6.47e5	5.64e5	3.58e6	2.60e6
chas	2	5.19e5	4.58e5	3.56e6	3.67e6
chas	3	9.32e5	9.71e5	1.32e6	1.15e6
CG42748	1	2.71e5	1.15e5	1.70e6	1.03e6
CG42748	2	1.02e6	8.61e5	1.91e6	2.00e6
CG42748	3	1.57e5	1.74e5	1.22e6	1.36e6
CG42748	4	2.18e5	3.77e5	6.47e5	1.00e6
SIFa	1	2.99e5	4.36e5	1.77e6	1.78e6
CG13323 + CG13324	1	6.35e5	4.55e5	1.26e6	1.15e6
Cul5	1	2.12e5	2.49e5	1.64e6	3.52e6
BuGZ	1	4.72e5	6.18e5	1.41e6	1.43e6
BuGZ	2	1.86e5	1.59e5	2.07e6	2.03e6
BuGZ	3	8.97e5	7.73e5	8.26e5	6.32e5
BuGZ	4	5.82e5	4.42e5	1.43e6	1.51e6
BuGZ	5	6.75e5	6.52e5	1.47e6	1.39e6
gom	1	3.31e5	3.26e5	2.26e6	2.00e6
pasha	1	75941	65662	8.26e5	4.89e5
pasha	2	2.02e5	2.24e5	5.04e5	8.05e5
CG7639	1	31085	56669	8.23e5	8.23e5
l(1)G0289	1	95361	93589	7.13e5	9.44e5
l(1)G0289	2	6.37e5	3.45e5	9.04e5	8.25e5
Oseg2	1	58063	1.17e5	8.88e5	1.39e6
CSN8	1	7.39e5	8.28e5	2.55e6	2.57e6
CG2120	1	2.04e5	2.86e5	2.81e6	2.76e6
CG2120	2	4.16e5	2.87e5	7.76e5	5.56e5
CG2063	1	2.53e5	1.80e5	1.99e6	1.09e6
CG3907	1	1.55e5	1.70e5	8.15e5	1.20e6
CG15715	1	2.26e5	2.38e5	2.05e6	2.55e6
CG15715	2	8.10e5	8.22e5	8.87e5	8.94e5
CG12974	1	3.17e5	2.60e5	2.85e6	2.78e6
